Changes are numbered by the printed parent chain. Names and notes keep the numbering of the source. Results are given in words; binding and its absence hold for the method and conditions named. Binding can be weak; no strength is given. Sequences can lack the tags named with a protein. For part of these data: Binding seen in cells or lysates may run through a third protein.

Chains of the proteins cited; added tags and fusions are not shown. Lines headed by an entry give the natural chain unless they say otherwise; changes in a name come on top.
UniProt H2L0N8: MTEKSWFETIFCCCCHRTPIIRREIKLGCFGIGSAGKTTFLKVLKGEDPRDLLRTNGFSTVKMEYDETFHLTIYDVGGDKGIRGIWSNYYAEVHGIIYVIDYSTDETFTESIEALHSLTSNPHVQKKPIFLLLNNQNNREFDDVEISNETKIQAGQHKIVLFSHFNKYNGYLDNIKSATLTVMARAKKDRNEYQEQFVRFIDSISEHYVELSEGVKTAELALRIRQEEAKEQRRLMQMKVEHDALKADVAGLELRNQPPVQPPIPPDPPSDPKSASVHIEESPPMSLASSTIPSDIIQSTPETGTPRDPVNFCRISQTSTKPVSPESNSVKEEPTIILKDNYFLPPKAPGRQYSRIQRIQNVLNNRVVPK
UniProt Q10658: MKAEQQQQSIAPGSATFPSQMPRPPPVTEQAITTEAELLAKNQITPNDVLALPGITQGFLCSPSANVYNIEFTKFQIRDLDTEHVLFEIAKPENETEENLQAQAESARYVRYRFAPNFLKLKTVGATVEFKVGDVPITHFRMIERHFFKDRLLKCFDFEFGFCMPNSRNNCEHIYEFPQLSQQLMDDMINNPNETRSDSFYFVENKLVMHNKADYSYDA

In article PMC4840320 (Scientific Reports, 2016) one finds binding data, which are given here for 6 molecules.

B1: His-tagged ARL-3 (natural protein, C. elegans, UniProt O45379 1-184, looked up)
chain: MGLIDVLKSFKSPSGREIRILLLGLDNAGKTTILKQLSSEDVQHVTPTKGFNVKTVAAMGDIRLNVWDIGGQRSIRPYWSNYYENIDTLIFVIDSNDKKRFDEMNIELGELLDEEKLRKVPVLIFANKQDLVTAASSEEITRKLNLDLLRDRTWHIQACSALKNEGINDGITWVASNLKPASKK
notes: ARL-3, small GTPase of C. elegans, wild type; the methods speak of full-length and/or truncated cDNAs, and no truncation of ARL-3 is named; also called His-ARL-3; source: E. coli BL21, purified (His resin); not shown: His, N-terminal, kept
B2: ARL-3 dominant active (DA, Q72L) variant, recombinant (natural protein, C. elegans, UniProt O45379 1-184, looked up)
chain: B1 chain with Q72L
notes: ARL-3, C. elegans, dominant active variant Q72L; also called ARL-3 DA; source: E. coli BL21, purified (His resin or glutathione sepharose)
B3: ARL-3 dominant negative (DN, T31N) variant, recombinant (natural protein, C. elegans, UniProt O45379 1-184, looked up)
chain: B1 chain with T31N
notes: ARL-3, C. elegans, dominant negative variant T31N; also called ARL-3 DN; ARL-3DN (T31N); source: E. coli BL21, purified (His resin or glutathione sepharose)
B4: ARL-3 with a BiFC tag (Venus fragment) in C. elegans (protein, UniProt O45379 1-184)
chain: B1 chain

One assay deals with GST-fused full length ARL-13 (FL) (C. elegans) (UniProt H2L0N8). Kind of assay: pull-down; GST pull-down: His-tagged protein incubated with GST-tagged protein immobilised on glutathione sepharose; 25 mM Tris-HCl pH 7.4, 150 mM NaCl, 0.5% Triton X-100, 1 mM DTT, 10% glycerol, 4 hours at 4 °C; six washes; anti-His immunoblot; both purified.
With “His-tagged UNC-119 (from UniProt Q10658 1-219)”, the binding entry is “binds”.

Regarding B1, the binding result is listed as “binds”.

For B2, the binding result is “no binding”.

With B3, the binding entry is “binds”.

The target in the next assay is ARL-13 with a BiFC tag (Venus fragment) in C. elegans (C. elegans) (UniProt H2L0N8). Kind of assay: split reporter; Venus-based BiFC in live transgenic C. elegans (N2 background; the ARL-13 pairs also in arl-3 or unc-119 mutants); signal in the InV-like compartment of cilia.
For the molecule “UNC-119 with a BiFC tag (Venus fragment) in C. elegans (from UniProt Q10658 1-219)”, the binding entry is listed as “binds”.

For B4, the binding entry is given as “binds”.
